Reference: paper PMC5496861, “Yeast Cip1 is activated by environmental stress to inhibit Cdk1–G1 cyclins via Mcm1 and Msn2/4”
Where a chain is given by its changes, count along the chain named. Numbers in names are those of the source. Results are given in words; binding and its absence hold for the method and conditions named. In cells and extracts the contact can be indirect. Some entries that bind do so weakly or less than the wild type. Tags and fused reporters may be left off the sequences shown. Values belong to the binder of their own block, whether it stands above or below them.

Tests used:
[1] = biological target: T1, Cip1 (Ypl014w), full length, C-terminal Myc13 tag (S. cerevisiae) (UniProt Q02606); test: co-IP; Cip1 and Cln3 (wild type or mutant) overexpressed in two different BJ2168 cells; lysates mixed and incubated with antibody-coupled Sepharose beads for 1 h; anti-Myc precipitates GAL1 promoter-driven Cip1 (Fig. 7g); western blot
T1 sequence: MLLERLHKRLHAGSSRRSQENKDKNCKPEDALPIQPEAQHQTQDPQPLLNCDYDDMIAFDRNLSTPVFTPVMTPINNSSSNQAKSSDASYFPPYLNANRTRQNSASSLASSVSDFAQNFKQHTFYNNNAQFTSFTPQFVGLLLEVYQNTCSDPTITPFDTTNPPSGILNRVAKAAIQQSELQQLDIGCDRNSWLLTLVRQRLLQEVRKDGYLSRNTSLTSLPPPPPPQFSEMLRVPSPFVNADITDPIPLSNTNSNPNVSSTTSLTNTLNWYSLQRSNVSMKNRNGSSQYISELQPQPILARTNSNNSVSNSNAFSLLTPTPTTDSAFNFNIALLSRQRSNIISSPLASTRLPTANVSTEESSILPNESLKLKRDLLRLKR

[2] = biological target: T2, Cln2, C-terminal HA3 tag (S. cerevisiae) (UniProt P20438); test: co-IP; Cip1 and cyclin overexpressed (GAL1 promoter) in two different BJ2168 cells; lysates (100 mM NaCl, 0.1% Triton X-100, 50 mM Tris-HCl pH 7.5) mixed and incubated with antibody-coupled Sepharose beads for 1 h; anti-HA precipitates the cyclin (Fig. 7a; the antibody of Fig. 7b is not told); cells untreated or with 0.5 M KCl for 10 min at 30 °C; western blot
T2 sequence: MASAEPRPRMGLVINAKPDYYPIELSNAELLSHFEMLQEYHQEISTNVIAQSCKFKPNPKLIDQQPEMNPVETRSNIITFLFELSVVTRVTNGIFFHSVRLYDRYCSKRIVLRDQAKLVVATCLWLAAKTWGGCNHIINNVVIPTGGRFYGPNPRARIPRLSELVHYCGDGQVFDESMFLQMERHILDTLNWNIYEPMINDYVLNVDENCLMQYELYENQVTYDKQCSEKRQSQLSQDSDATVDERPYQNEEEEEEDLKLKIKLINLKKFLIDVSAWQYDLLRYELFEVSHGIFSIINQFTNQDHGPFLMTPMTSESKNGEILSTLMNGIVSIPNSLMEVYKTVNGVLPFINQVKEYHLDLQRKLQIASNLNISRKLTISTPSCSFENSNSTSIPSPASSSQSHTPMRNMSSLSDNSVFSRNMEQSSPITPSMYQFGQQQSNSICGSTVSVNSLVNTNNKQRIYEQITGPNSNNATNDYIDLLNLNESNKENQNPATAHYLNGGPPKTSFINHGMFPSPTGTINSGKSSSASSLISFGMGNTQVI

[3] = biological target: T3, Cln3, C-terminal HA3 tag (S. cerevisiae) (UniProt P13365); test: as above
T3 sequence: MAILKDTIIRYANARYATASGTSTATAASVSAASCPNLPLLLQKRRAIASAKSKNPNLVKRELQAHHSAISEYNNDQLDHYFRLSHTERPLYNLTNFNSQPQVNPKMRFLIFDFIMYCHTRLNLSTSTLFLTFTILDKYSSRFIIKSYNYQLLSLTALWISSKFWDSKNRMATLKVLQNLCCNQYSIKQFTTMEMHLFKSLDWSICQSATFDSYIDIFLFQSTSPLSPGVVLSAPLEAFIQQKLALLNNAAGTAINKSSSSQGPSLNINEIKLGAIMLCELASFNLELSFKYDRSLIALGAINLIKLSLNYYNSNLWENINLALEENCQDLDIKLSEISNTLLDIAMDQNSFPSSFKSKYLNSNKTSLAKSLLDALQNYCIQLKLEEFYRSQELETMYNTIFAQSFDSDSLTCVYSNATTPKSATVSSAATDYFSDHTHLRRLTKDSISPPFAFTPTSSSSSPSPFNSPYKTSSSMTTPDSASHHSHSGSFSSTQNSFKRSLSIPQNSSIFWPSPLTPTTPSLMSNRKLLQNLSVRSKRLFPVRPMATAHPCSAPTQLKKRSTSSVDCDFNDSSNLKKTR

[4] = biological target: T4, Cln1, C-terminal HA3 tag (S. cerevisiae) (UniProt P20437); test: as above
T4 sequence: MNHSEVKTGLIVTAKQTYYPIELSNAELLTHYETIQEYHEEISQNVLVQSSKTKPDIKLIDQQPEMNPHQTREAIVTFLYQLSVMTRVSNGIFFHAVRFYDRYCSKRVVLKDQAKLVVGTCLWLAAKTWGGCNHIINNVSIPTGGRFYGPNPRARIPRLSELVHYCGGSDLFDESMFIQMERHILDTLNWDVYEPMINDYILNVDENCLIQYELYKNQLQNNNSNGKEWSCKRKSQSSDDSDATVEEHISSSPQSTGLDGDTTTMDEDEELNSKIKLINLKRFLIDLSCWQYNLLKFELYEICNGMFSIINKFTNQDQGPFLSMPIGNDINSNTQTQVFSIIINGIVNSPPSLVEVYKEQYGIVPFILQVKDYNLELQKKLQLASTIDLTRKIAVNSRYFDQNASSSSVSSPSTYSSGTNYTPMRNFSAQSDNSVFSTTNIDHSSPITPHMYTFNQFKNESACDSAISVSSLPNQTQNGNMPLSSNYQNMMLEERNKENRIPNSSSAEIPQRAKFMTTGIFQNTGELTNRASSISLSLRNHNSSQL

binding [1]: binds
B1: Cln3-14A (D166R170A) (protein, UniProt P13365 1-580)
chain: T3 sequence with D166A, R170A

binding [1]: binds
B2: Cln3, C-terminal HA3 tag (protein, UniProt P13365 1-580)
chain: T3 sequence

binding [1]: binds
B3: Cln3-13A (K163D166A) (protein, UniProt P13365 1-580)
chain: T3 sequence with K163A, D166A

binding [1]: binds
B4: Cln3-24A (K357K359A) (protein, UniProt P13365 1-580)
chain: T3 sequence with K357A, K359A

binding [1]: binds
B5: Cln3-27A (E386E387AR390A) (protein, UniProt P13365 1-580)
chain: T3 sequence with E386A, E387A, R390A

binding [2]: binds
binding [3]: binds
binding [4]: binds
B6: Cip1 (Ypl014w), full length, C-terminal Myc13 tag (protein, UniProt Q02606 1-381)
chain: T1 sequence

binding [2]: binds
binding [3]: binds
binding [4]: binds
B7: Cip1-3TA (T65A, T69A, T73A) (protein, UniProt Q02606 1-381)
chain: T1 sequence with T65A, T69A, T73A
